PubChem BioAssay AID652259, Drosophila RNAi Screening Center, 2013
The deposit covers about 22,000 reagents; this is an unselected part of those with a known target gene and a result. Of all reagents, 233 (1.1%) got an active call. 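Light values are raw, unnormalised plate reads; the ratio scores behind the reporter calls were not deposited.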 Unmarked entries are inactive. Reagents against one gene are numbered here. Names joined by + are all predicted targets of the reagent. Not given: the amount of reagent, the time to read-out, the dose of the treatment.

- Purpose: 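Knock-downs that push a Wingless-driven reporter up or down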 (primary screen)
- Cells: Drosophila clone 8 imaginal disc epithelial cells
- Knock-down reagent: long dsRNA against Drosophila genes
- Conditions: pathway stimulated by co-transfected Wingless expression plasmid
- Measured: 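Firefly luciferase from a tcf-site Wingless reporter, measured alongside co-transfected Renilla luciferase that tracks transfection; pathway stimulated by a Wingless plasmid; the firefly-to-Renilla ratio is not deposited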
- Reading the numbers: firefly reporter light: higher = more Wg reporter light, before normalisation; Renilla control light: higher = more transfected or surviving cells
- Hit rule: 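Strong candidates differ from their plate mean by at least two out of four per-plate statistical tests; weak candidates meet just one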
- Calls: active = candidate regulator (raises or lowers reporter); inactive = not a candidate

| gene knocked down | reagent no. | reporter change call, replicate 1 | firefly reporter light, replicate 1 | firefly reporter light, replicate 2 | Renilla control light, replicate 1 | Renilla control light, replicate 2 |
| --- | --- | --- | --- | --- | --- | --- |
| loaf (GeneID 39325) | 1 | – | 1405 | – | 683 | – |
| mRpL17 (GeneID 38046) | 1 | – | 6573 | – | 2736 | – |
| CG13326 (GeneID 36439) | 1 | – | 11191 | – | 3203 | – |
| Atg13 (GeneID 40998) | 1 | – | 15123 | – | 3571 | – |
| CG14014 (GeneID 33784) | 1 | – | 2800 | 7638 | 1309 | 3736 |
| chico (GeneID 64880) | 1 | – | 6384 | – | 2124 | – |
| CG17625 (GeneID 42678) | 1 | – | 13851 | – | 11121 | – |
| lilli (GeneID 33496) | 1 | Wg reporter activity lowered (active) | 3280 | – | 4480 | – |
| eIF2beta (GeneID 39433) | 1 | – | 4458 | – | 1690 | – |
| eIF2alpha (GeneID 32617) | 1 | – | 3773 | 6953 | 1034 | 717 |
| CG4017 (GeneID 34296) | 1 | – | 2022 | 4124 | 476 | 1996 |

Single entries from the entries so far.
Under “firefly reporter light, replicate 1”, CG17625 (GeneID 42678) has 13851
For “Renilla control light, replicate 1”, CG13326 (GeneID 36439) shows 3203
CG14014 (GeneID 33784), Renilla control light, replicate 1 = 1309
For “Renilla control light, replicate 1”, loaf (GeneID 39325) shows 683

Further results follow.
| gene knocked down | reagent no. | reporter change call, replicate 1 | firefly reporter light, replicate 1 | firefly reporter light, replicate 2 | Renilla control light, replicate 1 | Renilla control light, replicate 2 |
| --- | --- | --- | --- | --- | --- | --- |
| jim (GeneID 43924) | 1 | – | 8749 | – | 2864 | – |
| CG11168 (GeneID 42981) | 1 | – | 2508 | 5113 | 1047 | 1562 |
| lab (GeneID 40817) | 1 | – | 12729 | – | 1728 | – |
| CG17475 (GeneID 42069) | 1 | – | 11810 | – | 2611 | – |
| Kmn1 (GeneID 32102) | 1 | – | 19258 | – | 9643 | – |
| Or85c (GeneID 41008) | 1 | – | 18016 | – | 2768 | – |
| CG10151 (GeneID 36639) | 1 | – | 10247 | – | 4148 | – |
| CG13842 (GeneID 42685) | 1 | – | 19028 | – | 14585 | – |
| robl (GeneID 36963) | 1 | – | 6058 | – | 2843 | – |
| CG5510 (GeneID 42872) | 1 | – | 16413 | – | 15259 | – |
| CG3163 (GeneID 37836) | 1 | – | 9080 | – | 2614 | – |
| Mccc1 (GeneID 43750) | 1 | – | 4460 | 8791 | 1232 | 2928 |
| CG2614 (GeneID 35326) | 1 | – | 3208 | – | 458 | – |
| CG42717 (GeneID 10178897) | 1 | – | 4408 | – | 1658 | – |
| Rpp20 + CG33932 | 1 | – | 16433 | – | 10390 | – |
| Max (GeneID 40095) | 1 | – | 8040 | – | 3019 | – |
| CG2104 (GeneID 40702) | 1 | – | 12506 | – | 3396 | – |
| ymp (GeneID 43088) | 1 | – | 4774 | – | 2459 | – |
| ymp (GeneID 43088) | 2 | – | 31898 | – | 21467 | – |
